Reference: PubChem BioAssay AID1224828 (NIAID, 2016)
Screen: 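Find genes required for NF-kappaB p65 moving into the nucleus after LPS in mouse macrophages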 (primary screen). Cell system: mouse RAW264.7 G9 macrophage reporter cells (GFP-p65, Tnf promoter-mCherry). Reagents: siRNA pool against mouse genes, 100 nM. Duration: 2 days siRNA transfection, then 40 min LPS before fixation. Challenge: LPS (Salmonella minnesota R595) at 10 ng/ml. Measured: 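Imaged p65 nuclear translocation ratio, normalised to the plate median, converted to robust z-scores and averaged across two replicates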. Scale: p65 translocation robust z-score: higher = more nuclear NF-kappaB p65 after LPS than the plate median; nuclear/cytoplasmic p65 ratio: higher = more nuclear NF-kappaB p65. Active means: 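Called active when z exceeds 3.3 or falls under -1.56 (median of Tlr4 controls), giving activity score of at least 50; no calls for control wells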. Meaning of the calls: active = hit (p65 shift raised or lowered); inactive = no clear change.
The whole screen tested about 17,000 reagents; this is a part drawn at random. 762 of them (4.5%) count as active. 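Active calls include both raised and lowered p65 entry, mostly lowered; wells with fewer than 50 cells lack a z-score.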 Raw values are not corrected between plates. Unmarked entries are inactive. The numbers tell different reagents against one gene apart.

no.	gene knocked down	reagent	p65 translocation robust z-score	nuclear/cytoplasmic p65 ratio, rep 1	nuclear/cytoplasmic p65 ratio, rep 2	low cell count flag
1	Kcnd2	1	0.07	1.51	1.37	enough cells to score
2	Mxd3	1	0.46	1.88	1.65	enough cells to score
3	Or2y1g	1	-1.68 (active)	1.32	1.23	enough cells to score
4	Tlr2	1	-0.58	1.43	1.45	enough cells to score
5	Neurl1a	1	-1.09	1.2	1.21	enough cells to score
6	Cul2	1	-0.94	1.36	1.24	enough cells to score
7	Mmel1	1	0.09	1.73	1.56	enough cells to score
8	Habp4	1	-0.47	1.75	1.32	enough cells to score
9	Il11	1	1.68	1.58	1.66	enough cells to score
10	Tcl1b5	1		1.12	1.08	fewer than 50 cells per well; well left out of scoring
11	Vxn	1	0.33	1.27	1.35	enough cells to score
12	Zbtb6	1	1.11	1.95	1.61	enough cells to score
13	Sln	1		1.4	1.36	fewer than 50 cells per well; well left out of scoring
14	Myog	1		1.21	1.31	fewer than 50 cells per well; well left out of scoring
15	Dhrs3	1	-0.61	1.52	1.42	enough cells to score
16	Grsf1	1	0.21	1.45	1.41	enough cells to score
17	Txnl4a	1	-0.49	1.26	1.23	enough cells to score
18	Txnl4a	2	-3.15 (active)	1.09	1.12	enough cells to score
19	Atg3	1	-2.33 (active)	1.14	1.11	enough cells to score
20	Or4k52	1	0.3	1.65	1.55	enough cells to score
21	Or2k2	1		1.66	1.46	fewer than 50 cells per well; well left out of scoring
22	Snx20	1	-2.21 (active)	1.13	1.23	enough cells to score
23	Or8k16	1	1.81	2.01	1.78	enough cells to score
24	Zcchc9	1		1.62	1.23	fewer than 50 cells per well; well left out of scoring

Laid out differently: results already given.
| gene knocked down | reagent | p65 translocation robust z-score | nuclear/cytoplasmic p65 ratio, rep 1 | nuclear/cytoplasmic p65 ratio, rep 2 | low cell count flag |
| --- | --- | --- | --- | --- | --- |
| Txnl4a | 1 | -0.49 | 1.26 | 1.23 | enough cells to score |
| Txnl4a | 2 | -3.15 (active) | 1.09 | 1.12 | enough cells to score |
| Atg3 | 1 | -2.33 (active) | 1.14 | 1.11 | enough cells to score |
